Measurements as given in publication PMC7275032.
Results are given in words; binding and its absence hold for the method and conditions named. A result given as binding can be weak or reduced; the word gives no strength. For some assays here: Where a sequence is shown, tags or fusion partners need not be part of it.

What was measured:
[1] = target: T1, SPA-2 (polarisome protein) (N. crassa) (UniProt V5IQM7); assay: native gel or EMSA; 3-12% blue native PAGE of N. crassa extracts at 4 °C, blot with anti-HA-HRP; wild type, deletion strains and deletion variants of the partner
T1 sequence: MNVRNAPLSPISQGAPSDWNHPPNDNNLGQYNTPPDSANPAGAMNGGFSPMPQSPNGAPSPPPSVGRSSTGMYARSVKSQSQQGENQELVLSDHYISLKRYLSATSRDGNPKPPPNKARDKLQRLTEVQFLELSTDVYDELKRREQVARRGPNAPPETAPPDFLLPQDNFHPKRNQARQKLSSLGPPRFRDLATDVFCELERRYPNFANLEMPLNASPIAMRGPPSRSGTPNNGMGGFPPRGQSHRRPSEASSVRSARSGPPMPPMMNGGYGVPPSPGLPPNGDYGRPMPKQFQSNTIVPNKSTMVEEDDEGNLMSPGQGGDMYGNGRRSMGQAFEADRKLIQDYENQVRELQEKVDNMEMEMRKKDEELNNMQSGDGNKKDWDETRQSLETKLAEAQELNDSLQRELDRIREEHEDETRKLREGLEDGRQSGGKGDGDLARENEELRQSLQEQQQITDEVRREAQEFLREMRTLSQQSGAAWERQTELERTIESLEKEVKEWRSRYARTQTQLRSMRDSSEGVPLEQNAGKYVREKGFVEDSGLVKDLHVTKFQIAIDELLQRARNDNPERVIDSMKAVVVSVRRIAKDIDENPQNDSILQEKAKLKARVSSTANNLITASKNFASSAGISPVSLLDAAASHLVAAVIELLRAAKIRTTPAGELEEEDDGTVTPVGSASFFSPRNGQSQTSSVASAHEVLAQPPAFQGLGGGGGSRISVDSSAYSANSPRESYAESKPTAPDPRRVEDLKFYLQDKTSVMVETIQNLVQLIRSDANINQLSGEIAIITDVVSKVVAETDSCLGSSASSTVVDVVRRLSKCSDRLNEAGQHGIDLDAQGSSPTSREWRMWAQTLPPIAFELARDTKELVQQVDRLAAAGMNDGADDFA

[2] = target: T2, SPA-2, HA-epitope tagged, fused to a C-terminal peroxisome tail-anchor (TA peroxisome) (N. crassa) (UniProt V5IQM7); assay: ectopic targeting to the peroxisome surface, recruitment of mGFP fusions seen by confocal microscopy; HA-tagged protein with C-terminal PEX-26 tail-anchor combined by sexual crosses with mGFP fusion proteins; mCherry-PTS1 as peroxisome marker; living hyphae
T2 sequence: T1 sequence

With JANUS-1 (JNS-1) (from UniProt Q1K4U3) the binding [1] was “binds”.

For JNS-1 mGFP fusion protein (N. crassa), the binding [2] was “binds”.
